Reference: the supplement of paper PMC10849652
The list shows a part of the results. Residues, ends and D or L forms follow the SMILES beside them. *: point of attachment. Cbz = O=C(OCc1ccccc1)*

The chains behind the UniProt entries cited, without tags or fusion partners. Where a name states a change or a piece, a line headed by the entry shows the natural chain unless it says otherwise.
UniProt Q96B96: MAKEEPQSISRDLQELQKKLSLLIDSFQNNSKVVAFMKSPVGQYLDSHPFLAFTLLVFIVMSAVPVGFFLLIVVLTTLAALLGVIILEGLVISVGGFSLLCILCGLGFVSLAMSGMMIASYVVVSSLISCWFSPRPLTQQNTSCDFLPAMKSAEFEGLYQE
UniProt P19438, whole entry, looked up: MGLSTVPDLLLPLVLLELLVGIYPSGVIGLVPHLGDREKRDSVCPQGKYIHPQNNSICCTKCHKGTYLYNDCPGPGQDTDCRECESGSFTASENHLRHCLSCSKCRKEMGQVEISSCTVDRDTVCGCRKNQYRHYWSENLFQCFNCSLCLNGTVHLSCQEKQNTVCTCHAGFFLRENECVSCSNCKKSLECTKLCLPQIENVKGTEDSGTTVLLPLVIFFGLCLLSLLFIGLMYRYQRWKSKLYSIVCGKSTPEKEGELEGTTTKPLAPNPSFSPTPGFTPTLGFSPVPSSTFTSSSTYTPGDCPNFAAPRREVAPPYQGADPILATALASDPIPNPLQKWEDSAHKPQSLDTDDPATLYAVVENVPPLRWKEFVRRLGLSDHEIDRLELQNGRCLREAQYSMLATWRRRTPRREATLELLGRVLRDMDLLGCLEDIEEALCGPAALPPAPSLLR
UniProt Q92545: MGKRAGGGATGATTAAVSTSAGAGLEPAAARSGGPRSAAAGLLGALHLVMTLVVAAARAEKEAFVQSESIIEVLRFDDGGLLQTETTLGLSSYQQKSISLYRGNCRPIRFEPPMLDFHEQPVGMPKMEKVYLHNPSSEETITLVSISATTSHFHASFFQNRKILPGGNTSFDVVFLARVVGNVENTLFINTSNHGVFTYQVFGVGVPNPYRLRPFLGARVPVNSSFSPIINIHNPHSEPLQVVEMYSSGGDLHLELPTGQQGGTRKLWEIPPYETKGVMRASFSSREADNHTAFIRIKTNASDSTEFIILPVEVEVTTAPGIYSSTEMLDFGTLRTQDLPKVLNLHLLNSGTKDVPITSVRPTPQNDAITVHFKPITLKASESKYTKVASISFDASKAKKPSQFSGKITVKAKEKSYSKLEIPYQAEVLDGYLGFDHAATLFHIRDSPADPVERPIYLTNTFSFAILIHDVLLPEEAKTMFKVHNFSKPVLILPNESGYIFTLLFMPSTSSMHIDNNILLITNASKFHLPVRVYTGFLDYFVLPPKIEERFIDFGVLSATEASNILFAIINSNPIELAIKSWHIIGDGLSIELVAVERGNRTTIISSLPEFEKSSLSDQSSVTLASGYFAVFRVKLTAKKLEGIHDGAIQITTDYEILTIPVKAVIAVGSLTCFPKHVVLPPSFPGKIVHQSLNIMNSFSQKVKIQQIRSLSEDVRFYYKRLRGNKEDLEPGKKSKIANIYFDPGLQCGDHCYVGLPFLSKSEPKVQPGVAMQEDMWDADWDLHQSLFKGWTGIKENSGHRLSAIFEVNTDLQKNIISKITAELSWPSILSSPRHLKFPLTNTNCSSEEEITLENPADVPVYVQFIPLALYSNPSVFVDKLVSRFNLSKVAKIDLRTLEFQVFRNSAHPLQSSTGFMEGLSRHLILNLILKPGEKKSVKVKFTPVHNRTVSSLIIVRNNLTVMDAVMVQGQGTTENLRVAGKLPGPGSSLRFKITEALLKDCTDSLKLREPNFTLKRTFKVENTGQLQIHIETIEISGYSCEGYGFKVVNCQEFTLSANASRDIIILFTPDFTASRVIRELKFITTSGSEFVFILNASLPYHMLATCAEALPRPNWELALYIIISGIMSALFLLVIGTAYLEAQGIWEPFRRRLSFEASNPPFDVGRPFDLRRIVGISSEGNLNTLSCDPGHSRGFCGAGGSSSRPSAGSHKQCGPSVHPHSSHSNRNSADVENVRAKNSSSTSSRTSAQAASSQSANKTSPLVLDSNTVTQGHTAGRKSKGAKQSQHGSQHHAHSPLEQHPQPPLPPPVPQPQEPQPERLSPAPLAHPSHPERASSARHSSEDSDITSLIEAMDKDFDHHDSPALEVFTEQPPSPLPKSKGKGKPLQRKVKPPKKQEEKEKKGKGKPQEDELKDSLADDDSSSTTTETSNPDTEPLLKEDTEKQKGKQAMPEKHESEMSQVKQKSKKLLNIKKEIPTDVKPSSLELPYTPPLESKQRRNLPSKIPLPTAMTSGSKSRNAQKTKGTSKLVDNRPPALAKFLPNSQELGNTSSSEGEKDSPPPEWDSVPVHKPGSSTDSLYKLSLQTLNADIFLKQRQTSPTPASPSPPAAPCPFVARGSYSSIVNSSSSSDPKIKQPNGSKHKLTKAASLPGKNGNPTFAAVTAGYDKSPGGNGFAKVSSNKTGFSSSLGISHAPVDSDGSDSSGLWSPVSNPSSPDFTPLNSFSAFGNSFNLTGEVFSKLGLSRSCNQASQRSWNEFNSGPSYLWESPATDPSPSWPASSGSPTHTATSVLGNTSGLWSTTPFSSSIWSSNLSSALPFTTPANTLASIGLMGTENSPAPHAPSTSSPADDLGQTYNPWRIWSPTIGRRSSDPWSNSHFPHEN
UniProt O76062: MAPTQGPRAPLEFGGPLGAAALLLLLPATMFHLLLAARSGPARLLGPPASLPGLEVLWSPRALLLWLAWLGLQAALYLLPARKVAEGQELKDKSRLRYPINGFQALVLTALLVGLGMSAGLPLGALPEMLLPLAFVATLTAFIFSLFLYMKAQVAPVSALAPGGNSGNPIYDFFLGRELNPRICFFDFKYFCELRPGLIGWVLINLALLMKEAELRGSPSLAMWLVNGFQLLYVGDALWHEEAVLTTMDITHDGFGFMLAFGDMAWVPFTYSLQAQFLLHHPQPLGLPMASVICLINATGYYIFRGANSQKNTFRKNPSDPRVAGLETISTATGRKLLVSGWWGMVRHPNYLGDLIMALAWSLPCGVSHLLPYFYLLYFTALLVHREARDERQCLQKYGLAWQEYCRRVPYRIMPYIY
UniProt Q9H1K6: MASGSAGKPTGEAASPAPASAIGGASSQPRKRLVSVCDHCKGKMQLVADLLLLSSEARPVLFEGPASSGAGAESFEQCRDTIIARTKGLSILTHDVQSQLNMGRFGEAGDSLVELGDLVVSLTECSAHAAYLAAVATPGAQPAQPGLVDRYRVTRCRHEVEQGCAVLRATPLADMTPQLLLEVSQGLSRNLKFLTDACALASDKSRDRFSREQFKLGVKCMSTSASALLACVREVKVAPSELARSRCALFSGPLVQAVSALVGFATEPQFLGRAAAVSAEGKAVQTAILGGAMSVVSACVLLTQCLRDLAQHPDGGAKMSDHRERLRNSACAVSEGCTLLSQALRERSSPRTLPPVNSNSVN
UniProt Q9BSA9: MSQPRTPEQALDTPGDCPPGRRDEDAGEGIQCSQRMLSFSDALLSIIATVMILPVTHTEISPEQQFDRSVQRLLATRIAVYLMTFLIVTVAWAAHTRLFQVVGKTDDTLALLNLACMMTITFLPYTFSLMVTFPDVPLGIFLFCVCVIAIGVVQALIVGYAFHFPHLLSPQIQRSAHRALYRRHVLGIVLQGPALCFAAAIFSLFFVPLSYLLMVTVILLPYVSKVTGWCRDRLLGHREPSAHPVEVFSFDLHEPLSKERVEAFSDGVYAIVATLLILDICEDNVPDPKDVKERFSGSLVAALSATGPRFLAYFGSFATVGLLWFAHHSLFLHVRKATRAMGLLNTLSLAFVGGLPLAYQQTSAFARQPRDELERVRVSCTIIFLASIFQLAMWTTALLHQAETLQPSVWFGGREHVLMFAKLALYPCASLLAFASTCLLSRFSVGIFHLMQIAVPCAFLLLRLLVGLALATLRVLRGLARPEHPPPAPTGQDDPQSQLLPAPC
UniProt O94876, whole entry, looked up: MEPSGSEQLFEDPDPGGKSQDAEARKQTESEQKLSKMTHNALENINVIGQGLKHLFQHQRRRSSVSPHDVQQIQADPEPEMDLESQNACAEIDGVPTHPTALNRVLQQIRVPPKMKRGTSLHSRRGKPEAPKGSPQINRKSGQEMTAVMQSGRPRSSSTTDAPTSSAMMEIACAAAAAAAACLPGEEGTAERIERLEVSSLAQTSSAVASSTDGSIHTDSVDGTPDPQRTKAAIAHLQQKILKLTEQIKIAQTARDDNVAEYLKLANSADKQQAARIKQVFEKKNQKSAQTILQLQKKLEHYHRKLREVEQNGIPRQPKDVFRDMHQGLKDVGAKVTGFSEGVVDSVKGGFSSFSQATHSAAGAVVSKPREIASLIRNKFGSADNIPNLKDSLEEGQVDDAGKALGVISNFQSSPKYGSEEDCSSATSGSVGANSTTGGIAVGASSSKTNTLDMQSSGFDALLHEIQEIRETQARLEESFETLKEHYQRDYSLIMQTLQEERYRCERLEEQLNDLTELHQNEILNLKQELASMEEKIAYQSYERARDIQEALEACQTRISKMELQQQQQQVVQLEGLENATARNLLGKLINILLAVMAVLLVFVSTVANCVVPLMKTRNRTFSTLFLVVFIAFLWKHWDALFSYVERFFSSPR
UniProt Q9BSE2: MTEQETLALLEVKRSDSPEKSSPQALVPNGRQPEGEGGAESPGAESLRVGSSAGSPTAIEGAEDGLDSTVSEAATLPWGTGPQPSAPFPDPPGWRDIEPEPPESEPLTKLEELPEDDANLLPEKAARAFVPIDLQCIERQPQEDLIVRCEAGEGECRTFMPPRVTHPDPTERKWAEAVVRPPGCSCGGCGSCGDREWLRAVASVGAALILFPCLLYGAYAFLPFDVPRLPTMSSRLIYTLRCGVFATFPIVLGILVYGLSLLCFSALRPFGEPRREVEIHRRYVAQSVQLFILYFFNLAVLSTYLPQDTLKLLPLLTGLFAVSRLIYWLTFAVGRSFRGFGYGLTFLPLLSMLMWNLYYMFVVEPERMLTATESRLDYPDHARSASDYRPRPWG
UniProt Q9NX78: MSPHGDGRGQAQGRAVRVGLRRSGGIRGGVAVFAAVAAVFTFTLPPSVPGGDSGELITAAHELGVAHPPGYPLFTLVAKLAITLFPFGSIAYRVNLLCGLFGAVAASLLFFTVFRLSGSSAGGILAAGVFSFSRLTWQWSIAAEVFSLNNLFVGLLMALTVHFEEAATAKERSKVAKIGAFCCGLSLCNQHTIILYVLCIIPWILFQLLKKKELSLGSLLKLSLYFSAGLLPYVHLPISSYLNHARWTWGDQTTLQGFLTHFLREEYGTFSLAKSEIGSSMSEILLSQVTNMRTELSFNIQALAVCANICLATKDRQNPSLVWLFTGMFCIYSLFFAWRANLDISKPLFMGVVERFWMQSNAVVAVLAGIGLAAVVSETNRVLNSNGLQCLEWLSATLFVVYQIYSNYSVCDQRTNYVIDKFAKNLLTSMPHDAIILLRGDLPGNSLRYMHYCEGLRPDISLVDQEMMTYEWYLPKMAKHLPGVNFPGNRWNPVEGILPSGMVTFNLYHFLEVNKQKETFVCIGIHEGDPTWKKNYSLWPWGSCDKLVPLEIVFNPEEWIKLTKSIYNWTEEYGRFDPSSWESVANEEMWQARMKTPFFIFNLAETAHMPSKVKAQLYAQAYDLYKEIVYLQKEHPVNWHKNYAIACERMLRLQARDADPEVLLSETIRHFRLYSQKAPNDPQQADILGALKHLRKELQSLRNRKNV
UniProt Q9Y2Y6: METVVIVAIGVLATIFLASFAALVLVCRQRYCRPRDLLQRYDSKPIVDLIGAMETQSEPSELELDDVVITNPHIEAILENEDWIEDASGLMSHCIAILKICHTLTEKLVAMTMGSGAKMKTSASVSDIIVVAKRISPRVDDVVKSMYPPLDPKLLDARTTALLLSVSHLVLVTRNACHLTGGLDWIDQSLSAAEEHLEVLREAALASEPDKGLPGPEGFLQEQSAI
UniProt Q5SNT2: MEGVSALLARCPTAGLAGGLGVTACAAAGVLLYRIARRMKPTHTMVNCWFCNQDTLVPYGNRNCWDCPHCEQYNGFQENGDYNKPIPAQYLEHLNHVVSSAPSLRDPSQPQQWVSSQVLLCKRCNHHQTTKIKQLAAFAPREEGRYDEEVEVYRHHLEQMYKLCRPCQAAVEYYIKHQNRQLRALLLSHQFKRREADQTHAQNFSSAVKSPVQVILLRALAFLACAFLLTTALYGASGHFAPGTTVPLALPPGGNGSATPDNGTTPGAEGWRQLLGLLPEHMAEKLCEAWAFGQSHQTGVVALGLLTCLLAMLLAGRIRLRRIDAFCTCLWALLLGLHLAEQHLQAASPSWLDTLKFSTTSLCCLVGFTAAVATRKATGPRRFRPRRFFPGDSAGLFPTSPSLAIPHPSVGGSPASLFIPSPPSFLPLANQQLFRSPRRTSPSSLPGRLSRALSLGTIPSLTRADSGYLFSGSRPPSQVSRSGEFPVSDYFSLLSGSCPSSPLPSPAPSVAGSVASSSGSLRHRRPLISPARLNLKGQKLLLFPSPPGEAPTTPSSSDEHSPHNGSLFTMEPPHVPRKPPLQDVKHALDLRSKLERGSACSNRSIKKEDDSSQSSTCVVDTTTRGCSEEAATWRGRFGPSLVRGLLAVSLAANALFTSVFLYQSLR

How the values were obtained:
Assay in all cases: log2 fold change, soluble protein after heating vs DMSO (PISA); higher = thermal stabilisation; K562 cells, 10 uM, 30 min; active = over 0.2 and 3.5 SD of the protein, either way, in both replicates (recomputed)
ibrutinib = compound: C=CC(=O)N1CCC[C@@H](n2nc(-c3ccc(Oc4ccccc4)cc3)c3c(N)ncnc32)C1 [ibrutinib]
Summary of the method: (§1)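 Soluble protein was defined as the supernatant after 21,000xg for 90 min. It came from K562 cells at 2×10^6 cells/mL given 10 μM compound for 30 min, heated in aliquots for 3 min across 48°C-58°C, pooled, and extracted in PBS with 0.5% NP-40 at 4°C, and was quantified by TMTpro 16plex LC-MS/MS with equalised channel sums. Thermal stability against control samples, from duplicates, is reported as log2 fold change.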

[1] = compound: CC(=O)c1cnc2ccc(-c3cc(Cl)c(O)c(Cl)c3)nc2c1N[C@H]1CC[C@H](CN(C)C)CC1
Summary of the method: as §1

ralimetinib = compound: CC(C)(C)Cn1c(N)nc2ccc(-c3[nH]c(C(C)(C)C)nc3-c3ccc(F)cc3)nc21 [ralimetinib]
Summary of the method: as §1

[2] = compound: CC(C)(O)CC(=O)NCCn1ccc2ncnc(Nc3ccc(Oc4cccc(C(F)(F)F)c4)c(Cl)c3)c21
Summary of the method: as §1

[3] = compound: CC(C)C1=C2N=C(C=C(N2N=C1)NCC3=CC=CC=C3)NCCCCCCN
Summary of the method: as §1

[4] = compound: CC(C)C[C@@H](C=O)NC(=O)[C@H](CC(C)C)NC(=O)[C@H](CC(C)C)NC(=O)OCc1ccccc1
Summary of the method: as §1

[5] = compound: CC1=C(C(CC(=O)N1)C2=CC=C(C=C2)C(F)(F)F)C(=O)NC3=C(C=C4C(=C3)C=NN4)F
Summary of the method: as §1

[6] = compound: CC1=C(C2=C(C=C1)C(=O)C3=CC=CC=C3N2CCCN)C
Summary of the method: as §1

[7] = compound: CC1=C(C=C(C=C1)NC(=O)C2=CC(=CC=C2)C(C)(C)C#N)NC3=CC4=C(C=C3)N=CN(C4=O)C
Summary of the method: as §1

[8] = compound: CC1=C(C=C(C=C1)NC(=O)C2=CC(=CC=C2)N(C)C)NC(=O)C3=CC=C(C=C3)O
Summary of the method: as §1

[9] = compound: CC1=CC=C(C=C1)SC2=C3C=C(SC3=CN=C2)C(=O)N
Summary of the method: as §1

Nexturastat A = compound: CCCCN(Cc1ccc(C(=O)NO)cc1)C(=O)Nc1ccccc1 [Nexturastat A]
Summary of the method: as §1

vemurafenib = compound: CCCS(=O)(=O)Nc1ccc(F)c(C(=O)c2c[nH]c3ncc(-c4ccc(Cl)cc4)cc23)c1F [vemurafenib]
Summary of the method: as §1

[10] = compound: CCCS(=O)(=O)Nc1ccc(F)c(C(=O)c2c[nH]c3ncc(Cl)cc23)c1F
Summary of the method: as §1

[11] = compound: CCCc1cc(C)[nH]c(=O)c1CNC(=O)c1cc(-c2ccnc(N3CCN(C)CC3)c2)cc2c1cnn2C(C)C
Summary of the method: as §1

givinostat = compound: CCN(CC)Cc1ccc2cc(COC(=O)Nc3ccc(C(=O)NO)cc3)ccc2c1 [givinostat]
Summary of the method: as §1

barasertib = compound: CCN(CCCOc1ccc2c(Nc3cc(CC(=O)Nc4cccc(F)c4)[nH]n3)ncnc2c1)CCOP(=O)(O)O [barasertib]
Summary of the method: as §1

IRAK-1-4 Inhibitor I = compound: C1COCCN1CCN2C3=CC=CC=C3N=C2NC(=O)C4=CC(=CC=C4)[N+](=O)[O-] [IRAK-1-4 Inhibitor I]
Summary of the method: as §1

pinometostat = compound: CC(C)N(C[C@H]1O[C@@H](n2cnc3c(N)ncnc32)[C@H](O)[C@@H]1O)[C@H]1C[C@@H](CCc2nc3cc(C(C)(C)C)ccc3[nH]2)C1 [pinometostat]
Summary of the method: as §1

[12] = compound: CC1=NC(=CC=C1)C2=C(N=C(N2)C(C)(C)C)C3=CC4=NC=CN=C4C=C3
Summary of the method: as §1

Measured: log2 fold change

TMUB1 (UniProt Q9BVT8)
inactive: ibrutinib -0.051 | [1] -0.057 | ralimetinib 0.099 | [2] 0.028 | [3] -0.114 | [4] -0.096 | [5] 0.01 | [6] 0.098 | [7] -0.177 | [8] 0.044 | [9] 0.136 | Nexturastat A -0.019 | vemurafenib -0.066 | [10] 0.016 | [11] 0.014 | givinostat -0.042 | barasertib -0.018

TMEM159 isoform 2 (UniProt Q96B96)
inactive: ibrutinib -0.143 | [2] -0.034 | [3] 0.126 | [5] 0.047 | [6] 0.103 | [7] -0.095 | Nexturastat A 0.057 | [11] 0.149 | givinostat -0.024 | barasertib 0.196

TNFRSF1A (UniProt P19438)
inactive: [2] 0.016 | [3] 0.048 | [6] -0.02 | [7] 0.039 | [9] -0.146 | Nexturastat A 0.244 | [10] -0.141 | givinostat -0.023

TMCC2 (UniProt O75069)
inactive: [1] -0.064 | [5] 0.159

2 consecutive records from above:
TMUB1 (UniProt Q9BVT8)
inactive: ibrutinib -0.051 | [1] -0.057 | ralimetinib 0.099 | [2] 0.028 | [3] -0.114 | [4] -0.096 | [5] 0.01 | [6] 0.098 | [7] -0.177 | [8] 0.044 | [9] 0.136 | Nexturastat A -0.019 | vemurafenib -0.066 | [10] 0.016 | [11] 0.014 | givinostat -0.042 | barasertib -0.018

TMEM159 isoform 2 (UniProt Q96B96)
inactive: ibrutinib -0.143 | [2] -0.034 | [3] 0.126 | [5] 0.047 | [6] 0.103 | [7] -0.095 | Nexturastat A 0.057 | [11] 0.149 | givinostat -0.024 | barasertib 0.196

Next results:

TMEM131 (UniProt Q92545)
inactive: [1] 0 | [3] 0.03 | [6] 0.102 | [7] -0.046 | givinostat -0.018

TM7SF2 (UniProt O76062)
inactive: ralimetinib -0.106 | [3] -0.124 | [4] -0.01 | [7] 0.051 | [8] 0.015 | [9] -0.045 | vemurafenib 0.252 | [10] 0.123 | givinostat 0.18

TMCO6 isoform 2 (UniProt Q96DC7)
inactive: [3] -0.008 | givinostat 0.095

TM2D1 (UniProt Q9BX74)
inactive: [7] -0.026

TNFAIP2 (UniProt Q03169)
inactive: ibrutinib 0.123 | [3] 0.188 | [5] -0.003 | [6] -0.021 | [7] -0.19 | givinostat 0.323 | barasertib 0.08

TLNRD1 (UniProt Q9H1K6)
inactive: [6] -0.009

TLE5 isoform 2 (UniProt Q08117)
inactive: [1] -0.052 | ralimetinib -0.083 | [4] -0.062 | [5] -0.036 | [8] 0.093 | [9] 0.06 | vemurafenib 0.018 | [10] 0.065 | [11] 0.355

TMEM106C (UniProt Q9BVX2)
inactive: ibrutinib 0.213 | [3] 0.052 | [5] 0.244 | [7] -0.076 | [9] -0.052 | vemurafenib -0.121 | [10] 0.013 | givinostat 0.275 | barasertib 0.101

TMEM175 (UniProt Q9BSA9)
inactive: [1] -0.154 | [3] -0.051 | [6] 0.263 | [9] -0.101 | [10] -0.07 | givinostat 0.081

TMCC1 (UniProt O94876)
inactive: [1] 0.241 | [2] -0.055 | [7] -0.019 | Nexturastat A 0.097 | [11] 0.008

TMEM79 (UniProt Q9BSE2)
inactive: ibrutinib 0.015 | [1] -0.266 | [5] -0.029 | [6] 0.079 | barasertib 0

TMEM260 (UniProt Q9NX78)
inactive: IRAK-1-4 Inhibitor I -0.068 | [1] 0.084 | [3] 0.169 | pinometostat -0.03 | [6] -0.034 | [12] 0.134 | [11] -0.011 | givinostat 0.079

TMEM246 (UniProt Q9BRR3)
inactive: [3] -0.031 | givinostat -0.047

TMEM123 (UniProt Q8N131)
inactive: ibrutinib 0.041 | [1] -0.05 | [2] 0.005 | [3] 0.221 | [5] 0 | [6] -0.07 | [7] -0.009 | [9] -0.02 | Nexturastat A -0.18 | vemurafenib 0.031 | [10] -0.049 | [11] 0.077 | givinostat -0.069 | barasertib -0.029

TMEM98 (UniProt Q9Y2Y6)
inactive: ibrutinib -0.11 | ralimetinib 0.069 | [4] 0.065 | [5] -0.155 | [8] -0.324 | [9] -0.162 | [10] -0.001 | [11] 0.15 | barasertib -0.155

TMCC3 (UniProt Q9ULS5)
inactive: ibrutinib -0.188 | ralimetinib -0.064 | [4] -0.13 | [5] -0.089 | [7] 0.026 | [8] -0.03 | [11] 0.061 | barasertib 0.079

TMEM201 (UniProt Q5SNT2)
inactive: ibrutinib 0.176 | ralimetinib -0.043 | [2] -0.001 | [3] -0.206 | [4] -0.068 | [5] -0.337 | [6] 0.143 | [7] -0.15 | [8] 0.05 | Nexturastat A 0.026 | [11] 0.225 | givinostat 0.077 | barasertib -0.024
